{"source": "patent US11014947B2", "about": "“Lipophenol compounds and uses thereof” (INSTITUT NATIONAL DE LA SANTE ET DE LA RECHERCHE MEDICALE …, priority 2014, dated 2021)", "test_system": "ARPE-19 cell lines", "experiment": "ARPE-19 cell survival, co-treatment with atRAL 25 μM", "format": "cell-based", "conditions": "co-treatment with atRAL 25 μM 4 h (FIG. 4)", "method": "Co-treatment were performed with lipophenols onto ARPE-19 (FIG. 4). Incubation for 4 h with atRAL decreased cell viability to 35%. The protection of ARPE-19 by phloroglucinol (PG) was dose-dependent but weak (less than 10%). In contrast, most of the PG derivatives were more protective, in particular the presence of two or three DHA linked to PG provided a strong protection (up to 73% survival), as well as the mono-alkylation (methyl and isopropyl) were sufficient to protect 60% of cells. PG-OiP-DHA was confirmed to be among the most efficient (74%).", "note": "At least one structure is not confirmed: it was looked up by name or label, or the drawing left a doubt.", "data": [{"smiles": "CC/C=C\\C/C=C\\C/C=C\\C/C=C\\C/C=C\\C/C=C\\CCC(=O)O", "note": "[DHA, docosahexaenoic acid, reference compound]", "values": [{"measurement": "protective effect", "value": "toxic"}]}]}
